Data reported in patent US7214766B2 (priority 1998, dated 2007).
One purity is given for all peptides; the source may state it once. No end group written: not given here.

assay: peptide made by a vendor; details: whole synthesis, VYDAC reverse phase C8 column, 10–90% acetonitrile gradient over 34 minutes, 1.5 ml per minute

Final HPLC purity, greater than 95% pure:
ILKGFPGFPRRK
ILPFKFPFFPFRR
Ile Leu Pro Trp Lys Trp Pro Trp Trp Pro Trp Arg Arg
RRWPWWPWKWPLI
RRWPWWPWKWPLIGGGYDPAPPPPPP
SRRWPWWPWKWPLI
